Here are results for one compound from patent publication US6420131B1, “Use of fluorescein aryl ethers in high throughput cytochrome P450 inhibition assays” (Gentest Corporation, priority 1999, dated 2002).

Sequences of proteins named here, by UniProt entry; tags and fusion partners are left off.
UniProt P08684, whole entry: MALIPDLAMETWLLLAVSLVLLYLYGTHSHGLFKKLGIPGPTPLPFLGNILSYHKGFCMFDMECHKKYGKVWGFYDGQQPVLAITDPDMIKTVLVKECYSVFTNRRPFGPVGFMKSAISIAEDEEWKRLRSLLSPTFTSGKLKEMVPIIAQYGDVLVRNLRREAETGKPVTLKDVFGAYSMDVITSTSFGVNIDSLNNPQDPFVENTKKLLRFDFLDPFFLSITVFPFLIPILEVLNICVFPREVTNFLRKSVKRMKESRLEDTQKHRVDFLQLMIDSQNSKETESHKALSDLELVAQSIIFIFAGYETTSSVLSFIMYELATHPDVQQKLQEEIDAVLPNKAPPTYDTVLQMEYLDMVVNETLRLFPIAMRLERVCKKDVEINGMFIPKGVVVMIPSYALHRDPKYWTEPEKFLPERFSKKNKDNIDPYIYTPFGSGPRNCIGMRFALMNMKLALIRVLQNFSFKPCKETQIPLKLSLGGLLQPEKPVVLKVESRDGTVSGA

This series addresses human CYP3A4 (Homo sapiens, UniProt P08684).

Structures are written as SMILES.

As to `COC(=O)C1=C(C)NC(C)=C(C(=O)OC)C1c1ccccc1[N+](=O)[O-]` [Nifedipine], the Range was found to be 17.
